Results from paper PMC12802155.
These are yes or no findings as the source states them, for the method shown. In cells and extracts the contact can be indirect. Some entries that bind do so weakly or less than the wild type.

Protein sequences, listed by entry. Tags and fused reporters are not part of them.
UniProt P08727: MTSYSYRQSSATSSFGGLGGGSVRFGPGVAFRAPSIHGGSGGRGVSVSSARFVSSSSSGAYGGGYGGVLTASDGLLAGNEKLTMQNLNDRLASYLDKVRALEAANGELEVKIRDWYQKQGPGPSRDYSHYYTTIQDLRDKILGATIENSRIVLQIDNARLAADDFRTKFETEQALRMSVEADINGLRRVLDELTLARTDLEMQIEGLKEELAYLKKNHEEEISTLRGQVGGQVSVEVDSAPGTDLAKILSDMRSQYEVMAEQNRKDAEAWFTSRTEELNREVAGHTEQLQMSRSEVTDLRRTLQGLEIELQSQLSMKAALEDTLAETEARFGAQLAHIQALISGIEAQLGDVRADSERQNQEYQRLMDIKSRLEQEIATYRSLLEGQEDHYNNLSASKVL
UniProt P35579: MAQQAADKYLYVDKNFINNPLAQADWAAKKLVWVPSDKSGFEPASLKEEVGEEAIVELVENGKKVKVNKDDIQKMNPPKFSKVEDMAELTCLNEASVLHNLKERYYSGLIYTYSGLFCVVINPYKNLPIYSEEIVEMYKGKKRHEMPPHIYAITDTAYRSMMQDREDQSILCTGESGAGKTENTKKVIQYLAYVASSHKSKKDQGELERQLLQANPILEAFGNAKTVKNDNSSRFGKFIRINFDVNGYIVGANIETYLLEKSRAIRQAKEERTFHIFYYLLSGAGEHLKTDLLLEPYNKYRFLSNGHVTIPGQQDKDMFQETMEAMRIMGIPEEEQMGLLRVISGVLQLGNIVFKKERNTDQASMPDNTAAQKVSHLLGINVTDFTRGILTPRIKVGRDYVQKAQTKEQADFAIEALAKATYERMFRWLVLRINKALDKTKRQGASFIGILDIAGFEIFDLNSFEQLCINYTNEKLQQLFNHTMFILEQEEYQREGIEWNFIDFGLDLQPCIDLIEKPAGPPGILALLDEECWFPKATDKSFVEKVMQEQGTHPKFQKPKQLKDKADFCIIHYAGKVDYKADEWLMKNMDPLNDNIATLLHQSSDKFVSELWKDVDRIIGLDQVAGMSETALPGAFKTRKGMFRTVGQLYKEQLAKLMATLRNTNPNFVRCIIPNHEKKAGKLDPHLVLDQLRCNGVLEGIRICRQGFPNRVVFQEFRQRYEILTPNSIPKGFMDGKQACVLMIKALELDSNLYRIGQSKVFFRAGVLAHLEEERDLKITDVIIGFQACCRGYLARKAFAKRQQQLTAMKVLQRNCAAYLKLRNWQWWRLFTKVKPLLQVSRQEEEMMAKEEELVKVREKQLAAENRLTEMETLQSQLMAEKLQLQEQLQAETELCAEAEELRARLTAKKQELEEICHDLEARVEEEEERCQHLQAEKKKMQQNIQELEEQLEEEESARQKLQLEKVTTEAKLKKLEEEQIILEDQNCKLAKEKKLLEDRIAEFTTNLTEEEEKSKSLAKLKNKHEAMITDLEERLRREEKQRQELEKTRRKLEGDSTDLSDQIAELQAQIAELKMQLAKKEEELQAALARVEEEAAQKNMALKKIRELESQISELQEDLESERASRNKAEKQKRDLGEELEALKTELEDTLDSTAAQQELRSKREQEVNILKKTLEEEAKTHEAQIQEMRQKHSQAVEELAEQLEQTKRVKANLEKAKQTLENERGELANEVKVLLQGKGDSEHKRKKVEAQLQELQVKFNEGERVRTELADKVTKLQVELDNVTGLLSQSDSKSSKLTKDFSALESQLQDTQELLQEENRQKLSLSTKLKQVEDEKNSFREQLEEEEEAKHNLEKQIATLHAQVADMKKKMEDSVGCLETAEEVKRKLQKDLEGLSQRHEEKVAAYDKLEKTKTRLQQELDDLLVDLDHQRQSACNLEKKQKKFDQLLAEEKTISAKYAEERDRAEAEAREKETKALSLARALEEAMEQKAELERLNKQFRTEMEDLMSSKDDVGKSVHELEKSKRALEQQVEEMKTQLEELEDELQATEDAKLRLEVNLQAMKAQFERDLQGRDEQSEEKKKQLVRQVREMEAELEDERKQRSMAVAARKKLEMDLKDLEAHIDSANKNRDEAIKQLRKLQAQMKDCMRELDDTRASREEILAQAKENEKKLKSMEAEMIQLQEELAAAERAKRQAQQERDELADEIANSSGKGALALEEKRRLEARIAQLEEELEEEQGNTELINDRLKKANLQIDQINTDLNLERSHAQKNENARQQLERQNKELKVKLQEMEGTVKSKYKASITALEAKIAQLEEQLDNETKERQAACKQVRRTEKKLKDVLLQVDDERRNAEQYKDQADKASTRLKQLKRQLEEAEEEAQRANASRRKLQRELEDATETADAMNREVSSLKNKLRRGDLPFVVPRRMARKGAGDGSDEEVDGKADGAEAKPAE

Molecular target: keratin 19 (KRT19), endogenous (human (endogenous in A549)) (UniProt P08727)
Assay: co-IP; endogenous proteins in A549 lysate (IP Lysis Buffer), specific antibodies or control IgG overnight at 4 °C, protein A + G agarose, immunoblot

binding: binds
Substance: myosin heavy chain 9 (MYH9), endogenous (from UniProt P35579 1-1960)
